From publication PMC4963926
No constants are given. Whether binding was seen depends on the method and setting. Tags and fused reporters may be left off the sequences shown.

B1: HPV11 His6-E6 protein, P04019 1-150 (protein)
chain: MESKDASTSATSIDQLCKTFNLSLHTLQIQCVFCRNALTTAEIYAYAYKNLKVVWRDNFPFAACACCLELQGKINQYRHFNYAAYAPTVEEETNEDILKVLIRCYLCHKPLCEIEKLKHILGKARFIKLNNQWKGRCLHCWTTCMEDLLP
B2: HPV11 His6-E6 protein (protein, UniProt P04019 1-150)
chain: B1 chain

Legend:
[1] = target: T1, GST-E6AP (human ubiquitin ligase E6-associated protein) (human), Q05086; assay: pull-down; both purified; conditions: remark: other sources report otherwise
T1 chain: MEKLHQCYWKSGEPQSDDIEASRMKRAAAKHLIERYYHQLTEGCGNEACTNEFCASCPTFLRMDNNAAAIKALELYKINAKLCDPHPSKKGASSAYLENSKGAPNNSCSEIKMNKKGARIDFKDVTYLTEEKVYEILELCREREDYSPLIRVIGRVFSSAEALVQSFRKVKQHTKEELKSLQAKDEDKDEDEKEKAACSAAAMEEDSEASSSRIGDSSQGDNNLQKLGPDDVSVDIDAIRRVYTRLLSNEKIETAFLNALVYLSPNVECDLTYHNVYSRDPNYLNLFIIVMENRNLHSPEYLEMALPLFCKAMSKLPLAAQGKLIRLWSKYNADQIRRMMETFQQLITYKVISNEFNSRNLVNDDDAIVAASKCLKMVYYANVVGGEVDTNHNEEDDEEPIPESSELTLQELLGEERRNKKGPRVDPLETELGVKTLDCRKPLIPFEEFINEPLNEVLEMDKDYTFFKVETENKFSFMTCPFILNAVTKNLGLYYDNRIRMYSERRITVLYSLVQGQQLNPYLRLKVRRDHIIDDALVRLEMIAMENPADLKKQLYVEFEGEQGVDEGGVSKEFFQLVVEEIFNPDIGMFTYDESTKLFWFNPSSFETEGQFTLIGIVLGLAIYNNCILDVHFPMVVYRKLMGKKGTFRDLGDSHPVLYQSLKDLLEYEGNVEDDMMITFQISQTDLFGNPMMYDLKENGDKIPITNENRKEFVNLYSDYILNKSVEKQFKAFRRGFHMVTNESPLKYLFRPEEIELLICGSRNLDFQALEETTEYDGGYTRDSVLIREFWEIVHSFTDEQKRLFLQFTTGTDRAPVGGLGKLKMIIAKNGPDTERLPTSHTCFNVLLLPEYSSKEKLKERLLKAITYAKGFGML

GST-p53 = GST-p53 (UniProt P04637); assay: pull-down; both purified

Row | Binder | binding [1] | binding (GST-p53)
1 | B1 | no binding (tested: 50 ng of E6 protein) | 
2 | B2 |  | no binding (tested: 50 ng of E6 protein)
